Results published in article PMC9904299.

Biological target: FLAG-tagged human Ndufaf2 (human)
Test: co-IP; HEK293 cells co-transfected with FLAG-Ndufaf2 and tGFP-tagged MSR for 24 h; IP lysis buffer (25 mM Tris pH 7.4, 150 mM NaCl, 1 mM EDTA, 1% NP-40, 5% glycerol); anti-FLAG antibody and protein A Dynabeads at room temperature; blot with anti-tGFP

binding: binds
B1: human MSRB3 tagged with turboGFP (enzyme, UniProt Q8IXL7 33-192)
chain: GSCRDKKNCKVVFSQQELRKRLTPLQYHVTQEKGTESAFEGEYTHHKDPGIYKCVVCGTPLFKSETKFDSGSGWPSFHDVINSEAITFTDDFSYGMHRVETSCSQCGAHLGHIFDDGPRPTGKRYCINSAALSFTPADSSGTAEGGSGVASPAQADKAEL

No constants are given. Whether binding was seen depends on the method and setting. Binding seen in cells or lysates may run through a third protein. A result given as binding can be weak or reduced; the word gives no strength. Sequences can lack the tags named with a protein.
